This assay can be described thus: qHTS Assay for Lipid Storage Modulators in Drosophila S3 Cells.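 As to cell number change: cells counted by Cell Tracker Red CMTPX staining in the red channel.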 The note with it: BODIPY lipid droplet fluorescence, 18-24 h; for cell number change: measured here: cell count max response, cells fed with added oleic acid. In a few lines: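 Drosophila S3 cells loaded with oleic acid (400 uM, as added) and compounds at several concentrations; lipid droplets imaged by 488-nm laser-scanning cytometry, 500–530 nm intensity and object ratio to cell channel. Percent activity normalized to 20 uM Triacsin C.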
A general note: In qHTS, concentration-response curves come from the screen itself.

Setting [1] is: measured here: cell number channel AC50, cells fed with added oleic acid.
[2] abbreviates: measured here: lipid fluorescence (Fed channel) AC50, cells fed with added oleic acid.

The structures appear in SMILES notation. Some of the results follow. Shown are side measurements of this screen, not its main read-out; they come without a call. The list favours compounds with an active or inconclusive main result. Potencies come from curve fits of mixed quality, noted in brackets.

Our source for the AC50 and cell number change values is PubChem BioAssay AID2685 (National Center for Advancing Translational Sciences (NCATS), 2010).

As usually defined, the AC50 is the concentration at which the activity in the assay is half-maximal. A lower AC50 goes with activity at low concentration.

Take `O=C(CN1C(=O)NC(c2ccccc2)(c2ccccc2)C1=O)Nc1cccnc1Cl`: under setting [1], the AC50 was 0.00517 µM [falling, full curve, poor fit]. Take `CCN(C(=O)COC(=O)Cc1c(F)cccc1Cl)c1c(N)n(Cc2ccccc2)c(=O)[nH]c1=O`: the cell number change was -4.4%. In addition, under setting [2], the AC50 is 0.00517 µM [falling, full curve, poor fit]. Turning to `O=C(CN1c2ccccc2S(=O)(=O)c2ccccc21)Nc1ccccc1F`, the cell number change is -10.3%. For the compound `O=C(NC1CCCCC1)c1ccc2snnc2c1`, the cell number change is -11.9%. For the same compound, the concentration at half-maximal activity (AC50) under setting [2] was 10.3 µM [falling, partial curve]. As for `COc1ccc(NC(=O)c2nnn(CC(=O)Nc3ccccc3OC)c2N)c(OC)c1`, the cell number change amounted to 6.49%. Moreover, under setting [2], the half-maximal activity concentration (AC50) was 0.259 µM [rising, full curve].

For the compound `CCN(CC(=O)Nc1ccc(S(=O)(=O)N2CCCCC2)cc1)Cc1ccccc1`, the cell number change is -17.6%. Besides, under setting [2], the AC50 is 14.6 µM [falling, partial curve]. Regarding `COc1ccccc1NC(=O)c1nnn(Cc2ccccc2)c1NC(=O)C(F)(F)F`, the cell number change stood at 12.7%. The AC50 under setting [2] was 0.82 µM [rising, single point]. Regarding `CN(C)c1nc(F)c(F)c(S(=O)(=O)c2ccccc2)c1F`, the cell number change is 15.3%. Moreover, the concentration at half-maximal activity (AC50) under setting [2] is 29.1 µM [rising, single point]. With `N#CC(C(=O)Nc1ccc(Cl)cc1)=C1Nc2ccccc2N1`, the cell number change is -55.4%. Further, the half-maximal activity concentration (AC50) under setting [1] is 23.1 µM [falling, partial curve]. For the same compound, the AC50 under setting [2] was 18.4 µM [falling, single point].

Regarding `CC(=O)NC1=NC(=O)/C(=C/N2CCCCC2)S1`, the cell number change is -195%. In addition, under setting [1], the AC50 is 29.1 µM [falling, single point]. Turning to `Clc1c(-c2ccccc2)nnn1-c1ccccc1`, the cell number change amounted to 38.3%. The AC50 under setting [1] is 9.2 µM [rising, partial curve]. Besides, the half-maximal activity concentration (AC50) under setting [2] is 16.4 µM [falling, partial curve, poor fit].

In the case of `CCc1ccc(C(=O)/C=C/Nc2ccc(S(=O)(=O)Nc3cnc4ccccc4n3)cc2)cc1`, the cell number change came out at 14.9%. In addition, the half-maximal activity concentration (AC50) under setting [1] is 1.84 µM [rising, partial curve, poor fit]. The half-maximal activity concentration (AC50) under setting [2] is 3.66 µM [rising, full curve, poor fit].

As to `CCC(C(=O)N1CCN(S(=O)(=O)c2sc(C(=O)O)c(C)c2C(=O)O)CC1)c1ccccc1` (stereo not drawn), the cell number change came out at 13.2%. In addition, the AC50 under setting [2] was 0.206 µM [rising, full curve, poor fit]. As for `Cc1[nH]n(-c2ccccc2)c(=O)c1S(=O)(=O)c1ccccc1`, the cell number change was determined as 2.31%. Moreover, the half-maximal activity concentration (AC50) under setting [2] was 0.0231 µM [falling, full curve, poor fit].

Consider `Cc1cc(C)nc(SCC(=O)c2ccc(F)c(C)c2)n1`, for which the cell number change turned out to be 0.0473%. For the same compound, the AC50 under setting [2] is 6.51 µM [rising, single point].

For `Cn1nc(C(=O)N2CCc3ccccc32)c2ccccc2c1=O`, the cell number change is -21.6%. For the same compound, the half-maximal activity concentration (AC50) under setting [1] was 0.651 µM [rising, single point]. `CCN(CC)C(=O)c1[nH]cnc1C(=O)Nc1ccon1`: the cell number change turned out to be 13.4%. The AC50 under setting [2] was 0.092 µM [rising, full curve, poor fit].

Take `COc1ccc(NC(=O)c2cnn(-c3ccccc3)c2C)cc1`: the cell number change came to 8.76%.

As for `CC(OC(=O)CN(C)S(=O)(=O)c1ccc(Cl)cc1)C(=O)Nc1ccc(N2CCOCC2)cc1` (stereo not drawn), the cell number change is -7.33%. The AC50 under setting [2] is 0.092 µM [falling, full curve, poor fit]. With `O=C(CSc1ccccc1)Nc1ccc(N2CCOCC2)cc1`, the cell number change was -3.8%. Regarding `S=C(Nc1ccccc1Cl)NC1CC2CCCC(C1)N2C1CC1` (stereo not drawn), the AC50 is 1.16 µM [falling, single point] under setting [1] and 1.16 µM [falling, partial curve, poor fit] under setting [2]. In the case of `COc1ccc(OC)c(N(CC(=O)NC2CCCC2)S(=O)(=O)c2ccc(OC)c(OC)c2)c1`, the cell number change was -32.4%. For the same compound, the concentration at half-maximal activity (AC50) under setting [1] was 7.31 µM [falling, partial curve, poor fit]. For the same compound, the AC50 under setting [2] was 1.64 µM [falling, partial curve, poor fit]. On to `COC(=O)N/N=C/c1cccc(OCCSc2ccc(Cl)cc2)c1`, for which the cell number change is 18.6%. In addition, under setting [2], the AC50 was 5.8 µM [rising, partial curve, poor fit]. On to `Clc1ccc(Sc2cnc3ccccc3n2)cc1`, for which the cell number change was 8.45%. The AC50 under setting [1] is 0.0366 µM [rising, full curve, poor fit].

On to `COC(=O)/C(=N/Nc1ccccc1)N1CCCc2ccccc21`, for which the cell number change was determined as 12%. Turning to `Cc1ccc(NC(=O)C2CCCN(S(=O)(=O)c3cccnc3)C2)cc1C` (stereo not drawn), the cell number change came out at 44.5%. For the same compound, under setting [1], the concentration at half-maximal activity (AC50) is 0.461 µM [rising, full curve]. Further, under setting [2], the AC50 was 11.6 µM [rising, partial curve]. As for `O=C(NCCN1CCOCC1)C(=O)NCC1OCCN1S(=O)(=O)c1ccc(Br)cc1` (stereo not drawn), the concentration at half-maximal activity (AC50) under setting [2] is 0.708 µM [rising, full curve, poor fit]. `Cc1ccc(SCC(=O)OCC(=O)N2CCN(C(=O)c3ccco3)CC2)c(C)c1`: the cell number change is -24.4%. Under setting [2], the AC50 was 4.11 µM [falling, single point]. In the case of `Cc1oc(-c2ccccc2)nc1C(=O)OCC(=O)NC(=O)NCC(C)C`, the cell number change turned out to be 8.54%. Further, the AC50 under setting [2] was 2.06 µM [rising, partial curve]. As for `COC(=O)c1c(NC(=O)COC(=O)Cn2cnc3ccccc32)sc(C)c1C`, the cell number change was determined as 8.27%. The half-maximal activity concentration (AC50) under setting [2] was 2.06 µM [rising, partial curve]. As to `CCC(C)Sc1ccc([C@H]2N[C@@](Cc3ccccc3)(C(=O)OC)[C@H]3C(=O)N(CC)C(=O)[C@@H]23)cc1OC` (stereo partly drawn), the cell number change was -11%. Same read-out and setting: the figure for `Cc1ccnc(NC(=S)NC(=O)/C=C/c2ccco2)c1` is 17.4%. For the compound `CCC(CC)NC(=O)COC(=O)c1ccc(OCc2ccc(C(C)=O)cc2OC)c(OC)c1`, the cell number change came to 25.8%. The concentration at half-maximal activity (AC50) under setting [1] was 1.84 µM [rising, partial curve]. Moreover, the AC50 under setting [2] was 2.91 µM [rising, partial curve]. Turning to `COc1ccc(NC(=O)Cc2ccccc2)cn1`, the cell number change came to 5.44%. Moreover, the half-maximal activity concentration (AC50) under setting [2] is 1.03 µM [rising, full curve, poor fit]. As for `CCOC(=O)C(CCCCCOc1ccccc1[N+](=O)[O-])C(=O)OCC`, the cell number change was -42.7%. Further, the AC50 under setting [1] is 29.1 µM [falling, single point]. Moreover, the half-maximal activity concentration (AC50) under setting [2] is 29.1 µM [falling, single point]. Consider `CSc1ccc(S(=O)(=O)Nc2c(C)n(C)n(-c3ccccc3)c2=O)cc1`, for which the cell number change was determined as 1.64%. Further, under setting [2], the AC50 was 0.259 µM [rising, full curve, poor fit].

Take `Cc1ccc(-c2cn3cccnc3n2)cc1NC(=O)c1ccc(Br)o1`: the AC50 under setting [1] was 6.51 µM [rising, partial curve, poor fit] and the half-maximal activity concentration (AC50) under setting [2] is 1.3 µM [rising, full curve].
